Reference: PubChem BioAssay AID662 (National Center for Advancing Translational Sciences (NCATS), 2007)
The other results are listed elsewhere or left out. Further columns of the screen follow, without active or inactive calls. The list favours compounds with an active or inconclusive main result. The note in brackets gives the kind of curve behind each potency; many fits are weak.

Experiment: Cell signaling CRE-BLA (Fsk stim)
Conditions: CHO CRE-bla reporter (cAMP response element driving beta-lactamase), forskolin EC10, beta-lactamase ratio; measured here: 460 nm blue channel
In short: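 Reporter-gene assay: CHO cells with beta-lactamase behind cAMP responsive elements, co-treated with compound and EC10 NKH 477 for 3 hours at 37 degrees Celsius. Activity came from the 460/530 nm CCF4 emission ratio.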

SMILES	AC50
CN(Cc1ccco1)c1nc(-c2cccc(C#N)c2)nc2ccccc12	7.94 µM [rising, partial curve]
c1ccc(-n2nnnc2NCCc2c[nH]c3ccccc23)cc1	0.0794 µM [falling, full curve, poor fit]
COCCn1c(=O)c(-c2cn(C)c3ccccc23)nc2cnc(OCc3ccccc3)nc21	12.6 µM [rising, partial curve]
CCCC(=O)Nc1nc2ccc(S(N)(=O)=O)cc2s1	15.8 µM [rising, single point]
CCOc1ccccc1N(CC(=O)Nc1ccc(C)cc1)S(C)(=O)=O	0.000501 µM [rising, full curve]
C/C(N)=C(/C#N)C(=O)COc1ncnc2ccc(Br)cc12	3.16 µM [falling, full curve, poor fit]
CCc1nc(Nc2ccc3nccnc3c2)c2oc3ccccc3c2n1	0.501 µM [rising, full curve]
Cc1cc(C)nc(SCC(=O)Nc2ncc3c(n2)CC(C)(C)CC3=O)n1	3.16 µM [rising, single point]
O=C(CSc1nnc2scc(-c3ccccc3)n12)NCc1ccc2c(c1)OCO2	10 µM [rising, single point]
CC(C)(C)[Si](C)(C)c1c2c(nc3ccc(OCc4ccccc4)cc13)-c1cccc(=O)n1C2	12.6 µM [rising, partial curve]
Cc1ccc2cc3cc(C(=O)NCc4ccc5c(c4)OCO5)oc3nc2c1	0.00316 µM [falling, full curve, poor fit]
CCOC(=O)CNC(=O)c1cn(CC)c(=O)c2cc(OC)c(OC)cc12	6.31 µM [rising, partial curve]
COCCn1c(=O)c(-c2ccc(F)cc2)nc2cncnc21	15.8 µM [rising, partial curve]
CCOc1ccc(NC(=O)c2nnn(CC(=O)Nc3ccccc3OC)c2N)cc1	0.794 µM [falling, partial curve, poor fit]
O=C(CSc1nc(Nc2ccccc2)nc(N2CCOCC2)n1)N1CCCC1	15.8 µM [rising, single point]
CSC1=C(C#N)C(c2ccc(Cl)cc2)C2=C(CC(C)(C)CC2=O)N1 (stereo not drawn)	0.631 µM [rising, partial curve]
Cn1c(=O)cc(SCC(=O)NCc2cccnc2)c2ccccc21	10 µM [rising, single point]
CCN1CCN(C(CNC(=O)c2ccc3c(c2)OCO3)c2cccnc2)CC1 (stereo not drawn)	7.94 µM [rising, partial curve]
Cc1cc2cc(CN(CCCO)S(=O)(=O)c3cccc4nsnc34)c(=O)[nH]c2cc1C	25.1 µM [rising, single point]
CN(C)CCSc1nc(N)c2c3c(sc2n1)COC(C)(C)C3	12.6 µM [rising, partial curve]
COc1cccc(C(=O)Nc2c3c(nn2-c2ccccc2C)CS(=O)C3)c1OC (stereo not drawn)	12.6 µM [rising, single point]
CN(C)C(=O)c1ccc(-c2nc(N(C)C)c3ccccc3n2)cc1	7.94 µM [rising, partial curve]

Shown with each value named: part of the list above
Cc1cc(C)nc(SCC(=O)Nc2ncc3c(n2)CC(C)(C)CC3=O)n1
  AC50: 3.16 µM [rising, single point]
O=C(CSc1nnc2scc(-c3ccccc3)n12)NCc1ccc2c(c1)OCO2
  AC50: 10 µM [rising, single point]

(next part)

SMILES	AC50
CSc1nc2c(c(=O)n1C)SC(C)C2 (stereo not drawn)	12.6 µM [rising, single point]
Cn1cc(-c2nc3cnc(Oc4ccccc4)nc3n(Cc3cccs3)c2=O)c2ccccc21	1 µM [rising, partial curve]
Cc1cc(NC(=O)COc2ccc3oc4ccccc4c3c2)no1	5.01 µM [falling, single point]
CCOC(=O)C(NC(=O)CC)(Nc1sc2c(c1C(=O)OC)CCN(C)C2)C(F)(F)F (stereo not drawn)	0.02 µM [rising, full curve]
Cc1cc2nc(-c3ccco3)cc(C(F)(F)F)n2n1	12.6 µM [rising, partial curve]
COc1cc(-c2nnc(CSc3nc4ccccc4s3)o2)cc(OC)c1OC	2 µM [rising, full curve]
Nc1c(C(=O)NCCN2CCOCC2)c2nc3ccccc3nc2n1CCc1ccccc1	12.6 µM [rising, partial curve]
COc1cccc(C2=NOC(C(=O)Nc3ccc(OC)c(OC)c3)C2)c1 (stereo not drawn)	12.6 µM [rising, partial curve]
O=C(CSc1ccc(-c2ccc(F)cc2)nn1)N1CCCCC1	0.398 µM [falling, full curve, poor fit]
CN(C)CCCc1c2ccccc2nc2ccc(Cl)cc12	3.98 µM [rising, single point]
Cc1ccc(C(=O)CSc2nc3ccccc3c(=O)n2N)o1	6.31 µM [rising, partial curve]
COc1ncc2nc(C)c(=O)n(C[C@H]3CCCO3)c2n1	12.6 µM [rising, partial curve]
CCC(=O)n1nc(-c2cccnc2)nc1NCc1ccc(OC)cc1	0.00501 µM [falling, full curve, poor fit]
Cc1c(OC(=O)CNC(=O)OC(C)(C)C)ccc2c3c(c(=O)oc12)CCC3	12.6 µM [rising, single point]
Cc1cc2c(c(C)nn2-c2ccccc2)c(=O)o1	10 µM [rising, partial curve]
COCCn1c(=O)c(-c2ccc(Cl)cc2)nc2cnc(N3CCNCC3)nc21	2 µM [rising, full curve]
COc1ccc(S(=O)(=O)N(CCCN2CCCC2=O)Cc2cc3cc(C)c(C)cc3[nH]c2=O)cc1	10 µM [rising, partial curve]
O=C(Nc1ccc2c(c1)OCO2)C1CCN(C(=O)CSc2ncnc3ccccc23)CC1	1.58 µM [falling, full curve]
COC(=O)c1cc2c(C)nn(-c3ccccc3)c2s1	12.6 µM [rising, partial curve]
O=C(CCS(=O)(=O)Cc1ccccc1)Nc1nc2c(s1)CCCC2	25.1 µM [rising, single point]
CC1=CC(C)(C)Nc2ccc(OC(=O)c3ccco3)cc21	25.1 µM [rising, single point]
